The subject of the assay is CD2F1 mice, L1210 leukemia ip, survival T/C. Nature of the assay: NCI In Vivo Anticancer Drug Screen. Data for tumor model L1210 Leukemia (intraperitoneal) in CD2F1 (CDF1) mice. To be noted: higher T/C = longer survival. An outline of the steps: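 Compound-dosed mice with transplantable tumor versus matched vehicle controls; endpoint ratio T/C reported.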
[1] abbreviates: T/C endpoint: mean survival time, dose: 400.0 mg/kg/injection, schedule: Q04DX003 (ip), vehicle: saline with Tween-80.
Where [2] appears, read: T/C endpoint: mean survival time, dose: 12.5 mg/kg/injection, schedule: Q01DX009 (ip), vehicle: saline.
Setting [3] is: T/C endpoint: mean survival time, dose: 400.0 mg/kg/injection, schedule: Q01DX009 (ip), vehicle: saline with Tween-80.
[4] abbreviates: T/C endpoint: mean survival time, dose: 10.0 mg/kg/injection, schedule: Q01DX009 (ip), vehicle: saline.

The list is a part of this screen's results and no random one: it is rich in T/C values a quarter to a half above the control, in often repeated tests (any T/C) and in doses without a T/C. Further doses and runs are listed elsewhere. T/C is the treated group as % of the vehicle group. Some doses have a count of surviving animals in place of a T/C: the source files T/C as zero there, which appears to mark a toxic dose or a test without result, not a measured value. Some survivor counts are full or nearly so, which does not show that the dose was tolerated: survival well below the control is almost never listed, so the zero probably covers shortened survival too. Counts of survivors are from the toxicity check (mostly the fifth day) where no day follows; animals may have died later. Schedule codes are those of the source, taken here to give the interval after Q, in days (D) or hours (H), and the number of doses after X. Where survival is the endpoint, this PubChem deposit counts one and a half times the control or more as active, and values a quarter to a half above the control carry no call in these data; other NCI protocols may use other cut-offs. Some entries were tested several times; the results are listed from low to high. Some T/C values carry the count of animals alive at the toxicity check (mostly the fifth day); where none is given, no animal had died by that day.

As to `CC(Cc1ccccc1)NC(C)Cc1ccccc1` (stereo not drawn), the survivor count under setting [1] is 0 of 3.

Consider `Cc1ccc(C#CP(C#Cc2ccc(C)cc2)C#Cc2ccc(C)cc2)cc1`, for which the survivor count is reported as 3 of 3 (T/C endpoint: mean survival time, dose: 6.25 mg/kg/injection, schedule: Q01DX009 (ip), vehicle: saline with Tween-80) and 3 of 3 under setting [2].

Take `CC1C=CC(C(=O)Nc2ccc(Cl)c(Cl)c2)N1C` (stereo not drawn): the survivor count under setting [1] was 5 of 6.

As for `CN(C)c1ccc(/C=N/NC(=O)COc2ccccc2)cc1`, the survivor count under setting [3] was 6 of 6.

Regarding `O=C(COc1ccccc1)NC(=S)Nc1nccs1`, the survivor count runs as follows: (T/C endpoint: mean survival time, dose: 100.0 mg/kg/injection, schedule: Q04DX003 (ip), vehicle: saline with Tween-80) 3 of 6; (T/C endpoint: mean survival time, dose: 200.0 mg/kg/injection, schedule: Q04DX003 (ip), vehicle: saline with Tween-80) 2 of 6; under setting [3], 1 of 3; (T/C endpoint: mean survival time, dose: 400.0 mg/kg/injection, schedule: Q04DX002 (ip), vehicle: saline with Tween-80) 0 of 3; under setting [1], 1 of 6.

Take `CCCCC(CC)C(=O)[O][Pb]([CH3])([CH3])[CH3]` (stereo not drawn): where the note is “T/C endpoint: mean survival time, dose: 20.0 mg/kg/injection, schedule: Q04DX003 (ip), vehicle: saline with Tween-80”, the survivor count is on record as 3 of 6.

In the case of `ClP1(c2ccccc2)=NP(Cl)(c2ccccc2)=NP(Cl)(c2ccccc2)=NP(Cl)(c2ccccc2)=N1` (stereo not drawn), under setting [1], the survivor count is 6 of 6.

Consider `O=C(Nc1ccc(C(=O)O)cc1)Nc1ccc(F)c(Cl)c1`, for which the survivor count (T/C endpoint: mean survival time, dose: 400.0 mg/kg/injection, schedule: Q04DX003 (ip), vehicle: Klucel (hydroxypropylcellulose) (HPC)) is 2 of 6.

Take `COc1cc([C@@H]2c3cc4c(cc3[C@@H](OC3OC5COC(C)OC5C(O)C3O)[C@H]3COC(=O)[C@H]23)OCO4)cc(OC)c1O` (stereo partly drawn): the T/C reads like this: (T/C endpoint: mean survival time, dose: 0.25 mg/kg/injection, schedule: Q03HX024 (ip), vehicle: saline) 135 % of control; (T/C endpoint: mean survival time, dose: 1.0 mg/kg/injection, schedule: Q01DX009 (ip), vehicle: saline) 137 % of control; (T/C endpoint: mean survival time, dose: 4.0 mg/kg/injection, schedule: Q04DX003 (ip), vehicle: saline) 141 % of control; (T/C endpoint: median survival time, dose: 8.0 mg/kg/injection, schedule: Q01DX009 (ip), vehicle: other) 143 % of control; (T/C endpoint: median survival time, dose: 16.0 mg/kg/injection, schedule: Q01DX001 (sc), vehicle: other) 143 % of control; (T/C endpoint: median survival time, dose: 16.0 mg/kg/injection, schedule: Q01DX009 (ip), vehicle: saline) 127 % of control. Further, the T/C runs as follows: (T/C endpoint: median survival time, dose: 64.0 mg/kg/injection, schedule: Q01DX009 (oral), vehicle: Klucel (hydroxypropylcellulose) (HPC)) 133 % of control; (T/C endpoint: median survival time, dose: 64.0 mg/kg/injection, schedule: Q03HX016 (oral), vehicle: Klucel (hydroxypropylcellulose) (HPC)) 144 % of control; (T/C endpoint: median survival time, dose: 128.0 mg/kg/injection, schedule: Q01DX001 (oral), vehicle: other) 125 and 137 % of control; (T/C endpoint: median survival time, dose: 128.0 mg/kg/injection, schedule: Q01DX009 (oral), vehicle: Klucel (hydroxypropylcellulose) (HPC)) 133 % of control; (T/C endpoint: median survival time, dose: 128.0 mg/kg/injection, schedule: Q01DX009 (oral), vehicle: other) 125 and 137 % of control; (T/C endpoint: median survival time, dose: 256.0 mg/kg/injection, schedule: Q01DX009 (oral), vehicle: other) 125 and 131 % of control. The T/C was 137 % of control (T/C endpoint: median survival time, dose: 512.0 mg/kg/injection, schedule: Q01DX001 (oral), vehicle: other); 127 % of control (T/C endpoint: median survival time, dose: 512.0 mg/kg/injection, schedule: Q04DX003 (oral), vehicle: Klucel (hydroxypropylcellulose) (HPC)); 137 % of control (T/C endpoint: median survival time, dose: 1024.0 mg/kg/injection, schedule: Q01DX001 (oral), vehicle: other); 144 % of control (T/C endpoint: median survival time, dose: 1024.0 mg/kg/injection, schedule: Q04DX003 (oral), vehicle: Klucel (hydroxypropylcellulose) (HPC)). The survivor count runs as follows: (T/C endpoint: mean survival time, dose: 4.0 mg/kg/injection, schedule: Q03HX024 (ip), vehicle: saline) 9 of 10; (T/C endpoint: mean survival time, dose: 64.0 mg/kg/injection, schedule: Q04DX003 (ip), vehicle: saline) 8 of 10; (T/C endpoint: median survival time, dose: 8.0 mg/kg/injection, schedule: Q03HX016 (ip), vehicle: other) 6 of 10; (T/C endpoint: median survival time, dose: 16.0 mg/kg/injection, schedule: Q03HX008 (ip), vehicle: other) 1 of 10; (T/C endpoint: median survival time, dose: 16.0 mg/kg/injection, schedule: Q03HX016 (ip), vehicle: other) 1 of 10; (T/C endpoint: median survival time, dose: 16.0 mg/kg/injection, schedule: Q03HX024 (ip), vehicle: other) 3 of 10. The survivor count (T/C endpoint: median survival time, dose: 32.0 mg/kg/injection, schedule: Q03HX008 (ip), vehicle: other) is 3 of 10; the survivor count (T/C endpoint: median survival time, dose: 32.0 mg/kg/injection, schedule: Q03HX024 (oral), vehicle: Klucel (hydroxypropylcellulose) (HPC)) is on record as 10 of 10; the survivor count (T/C endpoint: median survival time, dose: 128.0 mg/kg/injection, schedule: Q03HX024 (oral), vehicle: Klucel (hydroxypropylcellulose) (HPC)) is on record as 10 of 10; the survivor count (T/C endpoint: median survival time, dose: 256.0 mg/kg/injection, schedule: Q01DX001 (ip), vehicle: other) is 1 of 10.

`Cc1ccc([NH-])cc1C.Cc1ccc([NH-])cc1C.[Cl][Pt+2][Cl]`: the survivor count by setting is: (T/C endpoint: mean survival time, dose: 100.0 mg/kg/injection, schedule: Q04DX003 (ip), vehicle: distilled water + Tween-80) 1 of 6; (T/C endpoint: mean survival time, dose: 200.0 mg/kg/injection, schedule: Q04DX003 (ip), vehicle: distilled water + Tween-80) 0 of 6.

Regarding `Cc1cc2c(cc1C)N(C(=O)CN1CCCCC1)CC(=O)N2`, the survivor count (T/C endpoint: mean survival time, dose: 300.0 mg/kg/injection, schedule: Q04DX003 (ip), vehicle: saline) is recorded as 0 of 6.

For `COc1cc2c(cc1OC)C[N+]1(C)CCc3cc(OC)c(OC)cc3C1C2` (stereo not drawn), where the note is “T/C endpoint: mean survival time, dose: 80.0 mg/kg/injection, schedule: Q01DX001 (ip), vehicle: saline”, the survivor count was 3 of 6.

Consider `O=S(=O)(F)c1ccc(C[P+](c2ccccc2)(c2ccccc2)c2ccccc2)c(Cl)c1`, for which the survivor count is, setting by setting: (T/C endpoint: mean survival time, dose: 75.0 mg/kg/injection, schedule: Q01DX009 (ip), vehicle: saline) 3 of 6; (T/C endpoint: mean survival time, dose: 150.0 mg/kg/injection, schedule: Q01DX001 (ip), vehicle: saline) 0 of 6; (T/C endpoint: mean survival time, dose: 300.0 mg/kg/injection, schedule: Q01DX001 (ip), vehicle: saline) 0 of 6.

Turning to `C/C(=N\NC(=O)c1ccccc1O)c1cccc(/C(C)=N/NC(=O)c2ccccc2O)n1`, the survivor count (T/C endpoint: median survival time, dose: 50.0 mg/kg/injection, schedule: Q01DX009 (ip), vehicle: saline) was 3 of 6.

With `CN(C)c1ccc(C(=C2C=CC(=[N+](C)C)C=C2)c2ccc(N(C)C)cc2)cc1` (tested in a mixture with another compound), the survivor count (T/C endpoint: mean survival time, dose: 5.0 mg/kg/injection, schedule: Q01DX009 (ip), vehicle: saline with Tween-80) is on record as 4 of 6; the survivor count (T/C endpoint: mean survival time, dose: 5.0 mg/kg/injection, schedule: Q01DX009 (ip), vehicle: suspension in saline) was 5 of 6; the survivor count (T/C endpoint: mean survival time, dose: 10.0 mg/kg/injection, schedule: Q01DX009 (ip), vehicle: suspension in saline) is 2 of 6.

As to `COc1cc2c(c(OC)c1O)-c1ccc(OC)c(=O)cc1[C@@H](NC(C)=O)CC2`, the T/C by setting is: (T/C endpoint: mean survival time, dose: 6.25 mg/kg/injection, schedule: Q01DX009 (ip), vehicle: saline) 135 % of control; (T/C endpoint: mean survival time, dose: 10.0 mg/kg/injection, schedule: Q01DX005 (ip), vehicle: Klucel (hydroxypropylcellulose) (HPC)) 126 % of control; under setting [2], 142 % of control. The survivor count (T/C endpoint: mean survival time, dose: 25.0 mg/kg/injection, schedule: Q01DX009 (ip), vehicle: saline) is given as 3 of 6.

Take `CCCC(=O)OCC1OC(n2cnc3c(=S)nc[nH]c32)C(OC(=O)CCC)C1OC(=O)CCC` (stereo not drawn): the T/C is 140 % of control (T/C endpoint: mean survival time, dose: 45.0 mg/kg/injection, schedule: Q04DX003 (ip), vehicle: saline with Tween-80) and 140 % of control (T/C endpoint: mean survival time, dose: 65.0 mg/kg/injection, schedule: Q04DX003 (ip), vehicle: saline with Tween-80).

Take `CC(C)CC(NC(=O)CF)C(=O)O` (stereo not drawn): under setting [4], the T/C was 132 % of control [5 of 6 alive] and the survivor count is reported as 0 of 6.
